{"sequences": {"note": "Chains of the proteins cited; added tags and fusions are not shown.", "UniProt P01106": "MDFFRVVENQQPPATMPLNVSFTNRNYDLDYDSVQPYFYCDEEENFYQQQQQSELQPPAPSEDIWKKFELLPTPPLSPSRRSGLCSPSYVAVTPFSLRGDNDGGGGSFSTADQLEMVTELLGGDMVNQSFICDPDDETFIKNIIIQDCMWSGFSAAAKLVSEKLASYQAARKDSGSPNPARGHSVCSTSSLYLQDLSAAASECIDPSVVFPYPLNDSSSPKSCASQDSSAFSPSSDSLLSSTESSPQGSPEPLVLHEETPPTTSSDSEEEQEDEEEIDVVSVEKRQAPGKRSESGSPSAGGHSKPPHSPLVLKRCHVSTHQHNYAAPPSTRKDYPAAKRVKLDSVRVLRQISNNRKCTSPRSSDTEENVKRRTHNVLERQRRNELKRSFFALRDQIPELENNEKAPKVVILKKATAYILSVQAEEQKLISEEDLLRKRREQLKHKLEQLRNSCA"}, "source": "paper doi:10.1101/2024.05.07.592940", "key": {"[1]": {"biological_target": "T1, non-receptor protein tyrosine phosphatase type 2 (PTPN2), endogenous (human (endogenous in MOLM13)) (UniProt P17706)", "T1 sequence": "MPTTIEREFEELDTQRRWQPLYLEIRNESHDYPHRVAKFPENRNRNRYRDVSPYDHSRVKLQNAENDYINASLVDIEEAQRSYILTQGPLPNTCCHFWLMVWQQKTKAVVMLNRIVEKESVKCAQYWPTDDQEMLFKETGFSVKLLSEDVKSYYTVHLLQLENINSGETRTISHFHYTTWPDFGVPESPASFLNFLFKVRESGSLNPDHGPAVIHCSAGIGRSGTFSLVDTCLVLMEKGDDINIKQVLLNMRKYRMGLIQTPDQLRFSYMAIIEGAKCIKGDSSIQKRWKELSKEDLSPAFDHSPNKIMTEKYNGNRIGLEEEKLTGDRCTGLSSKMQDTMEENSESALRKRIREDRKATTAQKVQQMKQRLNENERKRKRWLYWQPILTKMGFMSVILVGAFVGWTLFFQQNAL", "experiment": "co-IP"}, "[2]": {"biological_target": "T2, GST-PTPN2 recombinant protein (human) (UniProt P17706)", "T2 sequence": "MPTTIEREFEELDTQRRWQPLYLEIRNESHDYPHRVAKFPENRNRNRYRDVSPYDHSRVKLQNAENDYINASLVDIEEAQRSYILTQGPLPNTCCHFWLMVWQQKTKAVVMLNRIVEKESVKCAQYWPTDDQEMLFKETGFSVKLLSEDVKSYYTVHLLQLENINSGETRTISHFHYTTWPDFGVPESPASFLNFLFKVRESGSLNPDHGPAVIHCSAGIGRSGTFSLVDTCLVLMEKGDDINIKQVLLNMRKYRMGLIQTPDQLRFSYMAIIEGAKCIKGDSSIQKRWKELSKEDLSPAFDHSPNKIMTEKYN", "experiment": "pull-down"}}, "note": "These are yes or no findings as the source states them, for the method shown. Binding seen in cells or lysates may run through a third protein. Some binding calls cover weakened binding; strength is not graded here. For some assays here: Sequences can lack the tags named with a protein."}
{"substance": "C-MYC, endogenous (from UniProt P01106 1-454)", "values": [{"measurement": "binding", "setting": "[1]", "result": "binds"}, {"measurement": "binding", "setting": "[2]", "result": "binds"}]}
